# Experimental data: publication PMC5566433
# T1: neuroserpin (human retina) (human (endogenous in retina)) (UniProt Q99574)
# T1 sequence: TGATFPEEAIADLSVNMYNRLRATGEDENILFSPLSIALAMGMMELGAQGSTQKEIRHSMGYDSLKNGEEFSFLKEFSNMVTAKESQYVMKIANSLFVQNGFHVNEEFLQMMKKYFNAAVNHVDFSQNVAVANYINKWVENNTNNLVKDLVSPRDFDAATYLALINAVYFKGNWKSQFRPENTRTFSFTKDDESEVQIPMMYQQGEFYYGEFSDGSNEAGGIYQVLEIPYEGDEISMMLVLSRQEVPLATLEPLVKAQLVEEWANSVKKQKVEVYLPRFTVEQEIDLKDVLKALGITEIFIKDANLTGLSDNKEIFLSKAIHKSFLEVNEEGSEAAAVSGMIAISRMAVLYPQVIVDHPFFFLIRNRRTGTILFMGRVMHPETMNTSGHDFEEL
# T2: neuroserpin (rat retina) (rat (endogenous in retina)) (UniProt Q9JLD2)
# T2 sequence: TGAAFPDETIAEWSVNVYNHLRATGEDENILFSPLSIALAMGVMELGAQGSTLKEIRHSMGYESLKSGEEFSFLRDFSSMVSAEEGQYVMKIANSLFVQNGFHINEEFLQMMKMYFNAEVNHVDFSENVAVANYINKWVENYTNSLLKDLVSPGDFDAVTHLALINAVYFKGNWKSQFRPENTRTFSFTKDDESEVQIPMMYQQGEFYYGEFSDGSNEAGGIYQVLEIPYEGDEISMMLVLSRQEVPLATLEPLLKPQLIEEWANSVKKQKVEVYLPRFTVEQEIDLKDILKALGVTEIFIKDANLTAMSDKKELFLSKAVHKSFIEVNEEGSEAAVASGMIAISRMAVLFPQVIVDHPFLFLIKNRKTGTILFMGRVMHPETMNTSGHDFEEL
# B1: neuroserpin (human retina) (protein, UniProt Q99574 17-410)
# chain: T1 sequence
# B2: neuroserpin (rat retina) (protein, UniProt Q9JLD2 17-410)
# chain: T2 sequence
# Experiments:
# [1] = biological target: T1, neuroserpin (human retina) (human (endogenous in retina)); assay: co-IP; anti-neuroserpin antibody cross-linked to sepharose beads (DMP); human (control, glaucoma) or rat (control, high IOP) retinal lysates in 20 mM HEPES pH 7.4, 1% Triton X-100; eluted with 0.2 M Gly-HCl pH 2.5, 0.5 M NaCl; non-reducing western blot for plasmin and neuroserpin; higher molecular mass complex band in glaucoma samples
# [2] = biological target: T2, neuroserpin (rat retina) (rat (endogenous in retina)); assay: as above
# [3] = biological target: plasmin (human retina) (human (endogenous in retina)); assay: co-IP; reciprocal: anti-plasmin antibody; human or rat retinal lysates from control and glaucoma samples; non-immune IgG as control; western blot for plasmin and neuroserpin; complex band under glaucomatous conditions
# [4] = biological target: plasmin (rat retina) (rat (endogenous in retina)); assay: as above
molecule,measurement,setting,value
plasmin (human retina) (enzyme),binding,[1],binds
plasmin (rat retina) (enzyme),binding,[2],binds
B1,binding,[3],binds
B2,binding,[4],binds

# These are yes or no findings as the source states them, for the method shown. In cells and extracts the contact can be indirect. A result given as binding can be weak or reduced; the word gives no strength.
